Laboratory results published in paper PMC8517087, “Analysis of M4 Transmembrane Segments in NMDA Receptor Function: A Negative Allosteric Modulatory Site at the GluN1 M4 is Determining the Efficiency of Neurosteroid Modulation” (Frontiers in Pharmacology, 2021).
No constants are given. Whether binding was seen depends on the method and setting. In cells and extracts the contact can be indirect. Some entries that bind do so weakly or less than the wild type.

What was measured:
[1] = target: C-terminal truncated GluN2A^1–929 construct, His-tagged (mouse) (UniProt P35436); experiment: pull-down; metabolic (35S) methionine labelling of GluN2A*-His and GluN1^ΔM4 in oocytes, in the absence and presence of M4^N1; the purification step is not told for this figure (Supplementary Figure S1)
GluN2A^M560C (mouse) = GluN2A^M560C (mouse) (UniProt P35436); experiment: cross-linking; disulfide bond between cysteines introduced in the M4^N1 fragment and in GluN2A, co-expressed with GluN1^ΔM4 in oocytes; surface proteins biotinylated and isolated on streptavidin; denaturing SDS-PAGE without or with DTT; Western blot against the GluN1 CTD
GluN2A^F637C (mouse) = GluN2A^F637C (mouse) (UniProt P35436); experiment: as above

GluN1^1–802, M4-deleted GluN1 subunit (from UniProt P35439 19-802) (domain or fragment)
binding [1]: binds

M4^N1-F817C, isolated GluN1 M4 fragment (GluN1^802–925) with F817C (from UniProt P35439 802-925) (domain or fragment)
binding (GluN2A^M560C (mouse)): binds

M4^N1-M813C, isolated GluN1 M4 fragment (GluN1^802–925) with M813C (from UniProt P35439 802-925) (domain or fragment)
binding (GluN2A^F637C (mouse)): binds
